# Reference: PMC9515472, “The AhR ligand phthiocol and vitamin K analogs as Pseudomonas aeruginosa quorum sensing inhibitors” (Frontiers in Microbiology, 2022)
# System: P. aeruginosa PAO1 proteome
# Format: cell-based, Pseudomonas aeruginosa
# Conditions: 750 nM
compound,measurement,setting,value
"CC1=C(O)C(=O)c2ccccc2C1=O [Pht, 2-hydroxy-3-methyl-1,4-naphthoquinone]",number of proteins upregulated,p-value cutoff 0.05,10
same,number of proteins significantly affected,"p-value cutoff 0.05, of 2,203 proteins identified",37
